Assay results: PubChem BioAssay AID493014 (National Center for Advancing Translational Sciences (NCATS), 2011)
Screen size: about 340,000 compounds; about 170 (0.05%) were called active. Inconclusive results, whose numbers are uncertain, are shown with a selection of clear calls. The call rests on the fitted dose curve; in most records, active means well fitted inhibition curve with a large enough effect in the signal ratio, with a control signal flat (not every such curve was filed as active); inconclusive means small, poorly fitted or top-dose-only effect, or effect the other way, or a change in a side signal; inactive means flat fitted curve, though single readings scatter; the % refers to the signal ratio. Potencies beside an inconclusive call are fits to weak or partial responses and may not hold up.

test: qHTS Assay to Find Inhibitors of Chronic Active B-Cell Receptor Signaling; conditions: ABC-DLBCL IkBa-CBG/CBR reporter, luminescence ratio (green luciferase fused to IkBa over red control in TMD8 lymphoma cells), 4 h; activity change, negative = inhibition: at 46.1 µM (top of the series) unless noted;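 on activity change, negative = inhibition: plate controls were basal doxycycline-induced cells for no effect and cells given 10 µM MG132 for full effect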
Summary of the method: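 Concentration-response series (up to 46 uM) were applied to TMD8 dual-reporter cells for 4 h at 37C with doxycycline. Green/red ratio, after filter-overlap correction, defined %Activity; red signal alone was normalised to basal cells and zero luminescence.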
Potency means the concentration at half of the fitted maximal effect.

SMILES	activity change, negative = inhibition	Potency
COC(=O)c1sc(NC(=S)NC(=O)c2ccccc2C)nc1C	inconclusive: -15.2%	–
O=C(NCCc1cccs1)c1ccc(Cl)c(Cl)c1	–	inconclusive: 35.5 µM [rising, partial curve]
O=C(c1ccco1)N1CCN(Cc2csc(-c3ccccc3Cl)n2)CC1	inconclusive: -26.9%	–
COc1cc([C@@H]2c3cc4c(cc3[C@@H](O)[C@@H](CO)[C@@H]2CO)OCO4)cc(OC)c1O[Si](C)(C)C(C)(C)C	–	inconclusive: 11.2 µM [falling, partial curve, poor fit]
Cn1nc(C(=O)OCCN2C(=O)c3ccccc3C2=O)c2ccccc2c1=O	inconclusive: -6.79%	–
CC(C)CC(COCc1ccc(Cl)cc1)N1CCN(C(=O)c2ccc(C(F)(F)F)cc2)CCC1=O (stereo not given)	inconclusive: -8.84%	–
O=C(NC(=S)N1CCOCC1)c1cn(-c2ccccc2)nc1-c1ccccc1	inconclusive: -15.4%	–
O=C(CCC1CCCCC1)NCCS(=O)(=O)N1CCN(c2ccccc2F)CC1	–	inconclusive: 0.58 µM [falling, partial curve, poor fit]
COCCOC(=O)C1=C(C)NC(C)=C(C(=O)OC(C)C)C1c1cccc([N+](=O)[O-])c1 (stereo not given)	–	inconclusive: 20.6 µM [falling, partial curve, poor fit]
COc1ccccc1NC(=O)/C(C#N)=C/c1c(C)nn(-c2ccc(F)cc2)c1Cl	inactive	–
Cc1cc(N2CCN(C)CC2)ccc1NC(=O)c1cccc(S(=O)(=O)N2CCc3ccccc3C2)c1	inconclusive: 3.19%	–
NC(=S)Nc1ccc(S(=O)(=O)c2ccc(NC(N)=S)cc2)cc1	inactive	–
CCOc1cc(/C=N/NC(N)=O)cc(Br)c1OCC(=O)Nc1cccc2ccccc12	–	inconclusive: 16.4 µM [falling, single point]
COc1cc(OC)cc(C(=O)NC(=S)N(Cc2ccccc2)C(C)C)c1	inactive	–
O=C(NNC1=C(C(=O)C(F)(F)F)CCC1)c1ccc(Cl)cc1	inconclusive: -23.2%	–
CCOC(=O)c1ccc(N2CCN(c3cccc(Cl)c3)CC2)c(NC(=O)Nc2ccc(Cl)cc2)c1	inconclusive: 16.8%	–
COc1cc2c(cc1OC)-c1cc(Nc3cccc(C)c3)nc(=O)n1CC2	inconclusive: -13.1%	–
O=C(c1cc(-c2ccccc2)nc2ccccc12)N1CCCc2ccccc21	inactive	–
COc1ccc(/C=N/NC(=O)Cc2csc(Nc3cccc(C(F)(F)F)c3)n2)c(OC)c1	inconclusive: -6.66%	–
CC1(OC(=O)C2CCCC2)C(=O)C=C2C=C(c3ccsc3)N(Cc3ccco3)C=C2C1=O (stereo not given)	inconclusive: 10%	–
Cc1c(S(=O)(=O)NCCc2ccccc2)c(=O)n(C)c(=O)n1C	inactive	–
Nc1sc(-c2ccccc2)n[n+]1Cc1cccc2cccnc12	–	inconclusive: 25.1 µM [falling, single point]
CCOC(=O)c1c(C)[nH]c(C)c1S(=O)(=O)N1CCCC(C(=O)N2CCN(c3ccc(Cl)cc3)CC2)C1 (stereo not given)	inactive	–
COc1ccc(NS(=O)(=O)c2ccc(SC)cc2)cc1	inconclusive: -11.7%	–
S=c1[nH]nc(Nc2ccccc2Cl)s1	–	inconclusive: 22.4 µM [falling, single point]

SMILES	activity change, negative = inhibition	Potency
O=C(NCC1COc2ccccc2O1)c1ccc(NC(=O)C(c2ccccc2)c2ccccc2)cc1 (stereo not given)	inactive	–
O=C1C2C3C=CC(C3)C2C(=O)N1Nc1c(Cl)cc(Cl)cc1Cl (stereo not given)	–	inconclusive: 6.31 µM [falling, single point]
CCOc1cccc(/C=C2\NC(=S)N(c3ccccc3)C2=O)c1O	–	inconclusive: 3.55 µM [falling, partial curve]
O=C(NC(=S)/C(=C1\CCCCCN1)[N+](=O)[O-])c1ccccc1	inconclusive: 7.59%	–
CC1(C)CC(c2csc(N)n2)CCO1 (stereo not given)	–	inconclusive: 2.82 µM [falling, partial curve, poor fit]
CC1=NC(C)(C)Cc2ccccc21	inactive	–
CC(Sc1cccc[n+]1[O-])C(=O)Nc1ccc([N+](=O)[O-])cc1Cl (stereo not given)	–	inconclusive: 35.5 µM [falling, single point]
CC(Oc1ccc2ccccc2c1)C(=O)NNC(=O)Nc1ccccc1 (stereo not given)	inactive	–
CC1SCC(=O)N(CC(=O)Nc2ccc3c(c2)OCO3)C1=O (stereo not given)	inconclusive: 4.88%	–
Cn1c(N)c(C(=O)COC(=O)c2cc(S(=O)(=O)N3CCCCC3)ccc2Cl)c(=O)n(C)c1=O	inconclusive: -3.92%	–
Cc1ccc(C(=O)Nc2ccc(Cc3ccncc3)cc2)cc1[N+](=O)[O-]	inactive	–
CC(C)(C)c1ccc(-c2nc(-c3ccncc3)no2)cc1	inconclusive: 25.4%	–
Cc1cccc(N2C(=O)CC(Sc3nc(C)cc(C)n3)C2=O)c1 (stereo not given)	inactive	–
O=C(NC1CCCCC1)c1cc(-c2ccco2)on1	–	inconclusive: 3.98 µM [falling, partial curve]
COc1ccc(N2C(=O)CC(N3CCN(c4ccc(C(=O)c5cccnc5)cc4)CC3)C2=O)cc1 (stereo not given)	inconclusive: -0.654%	–
COc1ccc2sc(-c3ccccc3OC)c(-c3ccc(O)cc3)c2c1	inconclusive: 14.4%	–
CCOC(=O)C1CCN(C(=O)CNC(=O)OC(C)(C)C)CC1	inconclusive: 0.687%	–
O=C(Nc1cc([N+](=O)[O-])ccc1Cl)c1ccc2c(c1)OCO2	inactive	–
CC1CCN(C(=O)Cn2cc([N+](=O)[O-])ccc2=O)c2ccccc2S1 (stereo not given)	inconclusive: -1.37%	–
Cc1cnc2c(c1SCC(=O)N(C)c1ccccc1)c(=O)n(C)c(=O)n2C	inactive	–
COc1ccccc1/C=N/NC(=S)NCc1ccco1	–	inconclusive: 35.5 µM [rising, single point]
CCOc1ccc2nc(NC(=O)CSc3ccccc3)sc2c1	–	inconclusive: 29.1 µM [falling, single point]
Cc1ccc(NC(=O)Nc2cccs2)nc1	–	inconclusive: 29.1 µM [falling, single point]
Cc1ccnc(N/N=C/c2ccccc2)n1	–	inconclusive: 20.6 µM [falling, partial curve]
CCN(CC)C(=O)CSc1ncccc1-c1nc2ccccc2[nH]1	–	inconclusive: 3.55 µM [falling, partial curve]

Reformatted: results already given.
SMILES | activity change, negative = inhibition | Potency
CCOC(=O)c1c(C)[nH]c(C)c1S(=O)(=O)N1CCCC(C(=O)N2CCN(c3ccc(Cl)cc3)CC2)C1 (stereo not given) | inactive | –
COc1ccc(NS(=O)(=O)c2ccc(SC)cc2)cc1 | inconclusive: -11.7% | –
S=c1[nH]nc(Nc2ccccc2Cl)s1 | – | inconclusive: 22.4 µM [falling, single point]
O=C(NCC1COc2ccccc2O1)c1ccc(NC(=O)C(c2ccccc2)c2ccccc2)cc1 (stereo not given) | inactive | –
O=C1C2C3C=CC(C3)C2C(=O)N1Nc1c(Cl)cc(Cl)cc1Cl (stereo not given) | – | inconclusive: 6.31 µM [falling, single point]
CCOc1cccc(/C=C2\NC(=S)N(c3ccccc3)C2=O)c1O | – | inconclusive: 3.55 µM [falling, partial curve]
O=C(NC(=S)/C(=C1\CCCCCN1)[N+](=O)[O-])c1ccccc1 | inconclusive: 7.59% | –
CC1(C)CC(c2csc(N)n2)CCO1 (stereo not given) | – | inconclusive: 2.82 µM [falling, partial curve, poor fit]
CC1=NC(C)(C)Cc2ccccc21 | inactive | –
CC(Sc1cccc[n+]1[O-])C(=O)Nc1ccc([N+](=O)[O-])cc1Cl (stereo not given) | – | inconclusive: 35.5 µM [falling, single point]
CC(Oc1ccc2ccccc2c1)C(=O)NNC(=O)Nc1ccccc1 (stereo not given) | inactive | –
CC1SCC(=O)N(CC(=O)Nc2ccc3c(c2)OCO3)C1=O (stereo not given) | inconclusive: 4.88% | –
Cn1c(N)c(C(=O)COC(=O)c2cc(S(=O)(=O)N3CCCCC3)ccc2Cl)c(=O)n(C)c1=O | inconclusive: -3.92% | –
Cc1ccc(C(=O)Nc2ccc(Cc3ccncc3)cc2)cc1[N+](=O)[O-] | inactive | –
